Laboratory results from article PMC11574253.

Amino acid sequences for entries named in this document (tags omitted).
UniProt Q13242: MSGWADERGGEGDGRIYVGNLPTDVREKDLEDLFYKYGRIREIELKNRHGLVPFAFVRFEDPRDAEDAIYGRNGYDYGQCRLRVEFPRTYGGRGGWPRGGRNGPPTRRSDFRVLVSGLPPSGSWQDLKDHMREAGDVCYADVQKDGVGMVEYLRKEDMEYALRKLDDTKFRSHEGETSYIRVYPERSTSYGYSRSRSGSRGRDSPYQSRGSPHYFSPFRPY
UniProt Q9BQ67: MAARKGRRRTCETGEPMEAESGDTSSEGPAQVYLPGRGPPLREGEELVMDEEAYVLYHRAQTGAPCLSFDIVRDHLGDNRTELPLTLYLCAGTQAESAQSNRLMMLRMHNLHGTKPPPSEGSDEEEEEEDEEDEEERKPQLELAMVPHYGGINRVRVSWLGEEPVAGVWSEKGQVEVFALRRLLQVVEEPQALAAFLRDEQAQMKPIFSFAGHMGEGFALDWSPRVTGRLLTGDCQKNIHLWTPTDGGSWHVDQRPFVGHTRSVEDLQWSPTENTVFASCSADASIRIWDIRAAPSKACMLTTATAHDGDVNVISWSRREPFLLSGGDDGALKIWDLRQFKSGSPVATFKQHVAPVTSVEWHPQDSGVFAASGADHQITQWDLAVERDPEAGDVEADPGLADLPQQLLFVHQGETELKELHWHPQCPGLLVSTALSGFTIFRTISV

Molecular target: T1, Flag-tagged human DVL3 (Dishevelled 3), wild type (human) (UniProt Q92997)
T1 sequence: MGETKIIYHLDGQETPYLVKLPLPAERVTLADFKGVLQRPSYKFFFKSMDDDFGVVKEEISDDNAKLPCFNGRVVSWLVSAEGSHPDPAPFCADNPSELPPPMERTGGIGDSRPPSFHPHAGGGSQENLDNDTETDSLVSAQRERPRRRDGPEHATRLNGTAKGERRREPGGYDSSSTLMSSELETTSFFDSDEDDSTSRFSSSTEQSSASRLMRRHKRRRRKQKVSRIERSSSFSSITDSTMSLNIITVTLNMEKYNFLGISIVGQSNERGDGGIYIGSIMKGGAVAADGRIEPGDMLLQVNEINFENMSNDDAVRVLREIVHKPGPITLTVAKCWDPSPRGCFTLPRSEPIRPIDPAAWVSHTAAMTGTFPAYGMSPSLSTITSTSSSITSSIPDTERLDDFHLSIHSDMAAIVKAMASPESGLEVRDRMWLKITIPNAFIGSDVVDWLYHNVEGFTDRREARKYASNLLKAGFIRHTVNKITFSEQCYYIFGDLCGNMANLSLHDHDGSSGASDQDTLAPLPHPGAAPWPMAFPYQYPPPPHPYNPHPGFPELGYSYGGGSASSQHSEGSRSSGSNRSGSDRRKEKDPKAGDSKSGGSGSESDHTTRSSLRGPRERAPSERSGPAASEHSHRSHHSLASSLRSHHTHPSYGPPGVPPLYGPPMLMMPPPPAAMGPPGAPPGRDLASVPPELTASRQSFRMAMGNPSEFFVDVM
Assay: affinity purification with mass spectrometry; pulldown (immunopurification) of overexpressed DVL3 WT or E710A/D714A in the presence and absence of TTLL11; LC-MS/MS, three biological replicates; LIMMA, then REPRINT with CRAPOME and SAINTexpress

| Substance | binding |
| --- | --- |
| SRSF9 (from UniProt Q13242 1-221) | binds |
| GRWD1 (from UniProt Q9BQ67 1-446) | binds |

No constants are given. Whether binding was seen depends on the method and setting. In cells and extracts the contact can be indirect. These calls come from enrichment with a bait or labelling near it, and not all partners need be listed. Sequences can lack the tags named with a protein.
